Paper doi:10.1101/2020.09.18.302638
These are yes or no findings as the source states them, for the method shown. Some results given as binding are weak or reduced against the parent protein; the word gives no strength.

Target: tyrosyl-tRNA synthetase (TyrRS) from Phaseolus vulgaris (common bean) (Phaseolus vulgaris (common bean)) (UniProt V7CJ18)
Test: cryo-EM structure

binding: binds
B1: tyrosyl-tRNA synthetase (TyrRS) from Phaseolus vulgaris (common bean) (enzyme, UniProt V7CJ18 1-379)
chain: MEQAPSEALQSLSVSDSQIPQSSNSTPQLSPEEKFKIVRSVGEECIQEDELLNLLTKKPEPVCYDGFEPSGRMHIAQGVMKTISVNKLTSAGCRVKIWIADWFAKLNNKMGGDLKKIETVGRYLIEIWKAVGMDVEGGKVEFLWSSKEINARADEYWPLVLDIAQKNNLKRIIRCSQIMGRSEQDELTAAQIFYPCMQCADIFFLKADICQLGMDQRKVNVLAREYCDDIKRKNKPIILSHHMLPGLQQGQEKMSKSDPSSSVFMEDEEAEVNVKIKKAYCPPKVVEGNPCLEYIKYLILPWFNEFTVERSADNGGNKTFKSYEELIADYESGELHPADLKPALSKSLNKILEPVREHFRKDSNAKELLKRVKAYRVTK
